Data as given in PubChem BioAssay AID1671195 (Yale University, 2021)
Shown is an unselected part of about 22,000 reagents tested. In the full data, about 1,510 (6.9%) got an active call. 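Active includes knockdowns raising or lowering LDL uptake; positive z-scores mean more uptake, negative mean less.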 Unmarked entries are inactive. Reagents against one gene are numbered here.

Aim: 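Genes whose knockdown alters LDL uptake in liver cancer cells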 (primary screen)
Cells: human Huh7 hepatoma cells
Reagent: siRNA pool against human genes, 18 nM
Time to read-out: about 2 to 2.5 days of knockdown, then 8 h LDL uptake
Challenge: DiI-labelled LDL at 30 µg/ml for 8 h, in lipoprotein-deficient serum medium
Read-out: 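Fluorescent LDL signal imaged in cells, scaled to the plate median, robust z-score for each replicate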
Reading the numbers: robust z-score: higher = more LDL uptake after knockdown
Rule for the call: 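Active when two or more replicates show a robust z-score above 2 or below -2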

gene	reagent	robust z-score, replicate 1	robust z-score, replicate 2	robust z-score, replicate 3
GOLGA7B	1	-0.629	-0.65	-0.698
SLC37A1	1	1.69	1.73	1.62
SCN9A	1	-0.117	-0.865	-0.0659
PLAC8L1	1	-1.48	-1.21	-1.54
CATSPER3	1	1.06	-0.242	0.763
GET1P1	1	-1.34	-1.55	-1.5
LOC441663 (retired record)	1	-1.23	-1.21	-1.34
LOC442261 (retired record)	1	0.213	-0.277	0.38
C4BPB	1	-0.0798	-0.815	0.334
GM2A	1	-0.314	-0.621	-0.307
SLC35A5	1	-0.631	0.591	-1.34
LOC283583 (retired record)	1	2.31 (active)	2.2	1.96
LOC388291 (retired record)	1	-1.31	-1.23	-1.5
CSN1S1	1	0.343	1.67	0.455
FOLR2	1	-1.91 (active)	-2.18	-1.78
ADAM19	1	1.38	0.594	1.58
GRM4	1	-0.452	-1.34	-0.768
NGRNP1	1	-1.14	-0.686	-0.985
SPTLC3	1	-2.13	-0.0742	-0.534
CYTH1	1	1.09	1.39	0.658
CASKIN2	1	0.0464	1.74	2.45
OGFRL1	1	-0.219	-0.588	-0.497
CSTF2	1	-0.0813	-0.214	0.42
CAMTA2	1	-0.0235	-0.748	1.37
UTP18	1	0.376	-0.122	0.915
RBPMS	1	-0.533	-0.661	-1.14
EML6	1	0.917	0.735	0.497
DHX35	1	-1.45 (active)	-2.19	-2.43
LINC00851	1	-0.564	0.255	-0.0945
THRA	1	-0.368	-1.76	-1.1
FRYL	1	0.207	1.78	-0.21
CEACAM1	1	-0.00391	-0.831	-0.544
C8orf17	1	-0.301	-0.403	-0.651
ITPRID2	1	0.501	0.469	0.665
PUDP	1	0.494	0.364	-0.256
TASOR	1	0.234	1.91	0.576
SLITRK5	1	-0.831	0.421	0.753
CCDC159	1	-0.291	-0.201	-0.221
LOC391509 (retired record)	1	-0.574	-1.11	-1.13
SUZ12P1	1	0.705	0.379	0.483
PPP1R12B	1	1.07	0.414	1.26
FDCSP	1	0.836	1.14	1.5
PTGES	1	-0.636	-0.923	-1.59
CCDC6	1	-0.814	-0.768	-1.3
REM2	1	0.324	-0.422	0.291
SASH1	1	-0.283	0.323	-1.09
SPANXN2	1	-0.366	-0.237	-0.189
SERPINA10	1	-0.939	-2.07	-0.772
GLYCTK	1	-0.314	0.078	0.2
SLC38A8	1	0.229	0.25	0.274
LOC392559 (retired record)	1	-3.29 (active)	-2.82	-2.74
BRD4	1	0.436	0.795	0.463
MTERF4	1	-1.14	0.176	-0.418
CEACAM7	1	-0.351	-0.337	0.755
RBM12	1	-0.634	-1.64	-1.73
EMP2	1	-0.544	0.192	-0.138
LOC389029 (retired record)	1	-0.718	-1.17	-1.05
BRME1	1	0.308	1.16	0.673
CEND1	1	2.77 (active)	3.72	2.23
XKR3	1	-0.494	-0.506	-0.826
SPATA22	1	-0.763	-0.529	-0.854
NDUFS2	1	1.84	2.03	0.993
RMDN2	1	0.574	-0.0239	0.176
LOC387884 (retired record)	1	0.564	0.912	0.638
DNAH6	1	1.46	1.35	1.3
DNAH6	2	-0.072	0.0912	-0.0327
ADAM23	1	0.572	0.55	1.19
TSPAN31	1	1.25	1.48	0.963

Reagents above called active (5):
gene	reagent	robust z-score, replicate 1	robust z-score, replicate 2	robust z-score, replicate 3
LOC283583 (retired record)	1	2.31 (active)	2.2	1.96
FOLR2	1	-1.91 (active)	-2.18	-1.78
DHX35	1	-1.45 (active)	-2.19	-2.43
LOC392559 (retired record)	1	-3.29 (active)	-2.82	-2.74
CEND1	1	2.77 (active)	3.72	2.23
